Measurements as given in PubChem BioAssay AID212 (DTP/NCI, 2004).
The list does not hold the whole screen: it gathers tests that were run many times, whatever their T/C, doses with no T/C, and many T/C values between a quarter and a half above the control. Further doses and runs are listed elsewhere. T/C is the treated group as % of the vehicle group. Schedules are NCI's codes, read here as Q, the interval in days (D) or hours (H), X, the number of doses. Some T/C values carry the count of animals alive at the toxicity check (mostly the fifth day); without a count, all were alive then. Some entries were tested several times; their values stand side by side, smallest first. Some entries give survivors of the animals treated and no T/C: the source holds a T/C of zero for them, seemingly a mark for toxic or unscored doses. Counts of survivors are from the toxicity check (mostly the fifth day) where no day follows; animals may have died later. *1 amine or outer side, *2 acyl side, *3 side chain or, on linkers, in order; H or OH if unused. Where a SMILES comes first, the peptide text is derived from it. Bridges are numbered along the chain shown (N, C = ends). Roman numbers before positions name the chains, in order. [ ]: non-standard residue; d: D form. Actinocin(1to9) = Cc1c2oc3c(C)ccc(C(=O)[*:2])c3nc-2c(C(=O)[*:1])c(N)c1=O; NMeV = CN[CH](C(=O)O)C(C)C; Aze = O=C(O)[CH]1CCN1; Sar = CNCC(=O)O

Tested on: BDF1 mice, colon carcinoma 38 sc, T/C %
Experiment: NCI In Vivo Anticancer Drug Screen. Data for tumor model Colon Carcinoma 38 (subcutaneous) in B6D2F1 (BDF1) mice
Settings: T/C endpoint: median tumor weight (est.), higher T/C = larger tumour; for T/C: evaluated on day 20
Procedure, shortened: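 Compound antitumor activity was assessed in mice carrying transplantable tumors. Survival or tumor size was recorded, and each value is the treated-group measurement divided by that of the vehicle-treated control group.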

[1] = dose: 50.0 mg/kg/injection, schedule: Q07DX002 (ip), vehicle: saline with Tween-80
[2] = dose: 50.0 mg/kg/injection, schedule: Q07DX002 (ip), vehicle: saline
[3] = dose: 12.5 mg/kg/injection, schedule: Q07DX002 (ip), vehicle: saline

Structure (SMILES): CN(C)[C@@H]1C(=O)C(C(N)=O)=C(O)[C@@]2(O)C(=O)C3=C(O)c4c(O)ccc(Cl)c4[C@@](C)(O)[C@H]3C[C@@H]12
- survivor count (dose: 400.0 mg/kg/injection, schedule: Q07DX002 (ip), vehicle: saline): 2 of 10 on day 20
- survivor count (dose: 800.0 mg/kg/injection, schedule: Q07DX002 (ip), vehicle: saline): 0 of 10 on day 20
- survivor count (dose: 800.0 mg/kg/injection, schedule: Q07DX002 (ip), vehicle: suspension in saline): 4 of 10 on day 20

Structure (SMILES): CCSC(=O)N1c2ccc(OC)cc2C=CC1C#N (configuration not stated)
- T/C [1]: 129 % of control
- T/C (dose: 200.0 mg/kg/injection, schedule: Q07DX002 (ip), vehicle: saline with Tween-80): 144 % of control
- T/C (dose: 2800.0 mg/kg/injection, schedule: Q07DX002 (ip), vehicle: saline with Tween-80): 134 % of control [8 of 10 alive]

Structure (SMILES): COc1ccc(CC2C(=O)NC(C)C(=O)N(C)C3C(=O)N(C)C(Cc4ccc(O)c(c4)Oc4ccc(cc4)C3O)C(=O)NC(C)C(=O)NC(C)C(=O)N2C)cc1 (configuration not stated)
- T/C (dose: 2.0 mg/kg/injection, schedule: Q07DX003 (ip), vehicle: Klucel (hydroxypropylcellulose) (HPC)): 130 % of control

Structure (SMILES): O=S(=O)(N=N/C=C1\C=CC=CN1O)c1cccs1
- survivor count (dose: 400.0 mg/kg/injection, schedule: Q07DX002 (ip), vehicle: saline with Tween-80): 3 of 10 on day 20

Structure (SMILES): Cc1cc(NCCCCCCCNc2cc(C)nc3cc(N)ccc23)c2ccc(N)cc2n1
- T/C (dose: 3.12 mg/kg/injection, schedule: Q07DX002 (ip), vehicle: saline with Tween-80): 93 [9 of 10 alive on day 20], 104, 112, 132 % of control
- T/C (dose: 6.25 mg/kg/injection, schedule: Q07DX002 (ip), vehicle: saline with Tween-80): 84, 95, 101, 121 % of control
- T/C (dose: 12.5 mg/kg/injection, schedule: Q07DX002 (ip), vehicle: saline with Tween-80): 66 [9 of 10 alive], 73, 87, 139 % of control
- T/C (dose: 25.0 mg/kg/injection, schedule: Q07DX002 (ip), vehicle: saline with Tween-80): 22 [9 of 10 alive], 58 [9 of 10 alive on day 20], 63 [9 of 10 alive on day 20], 95 % of control
- survivor count [1]: 1 of 10 on day 20, 5 of 10 on day 20, 6 of 10 on day 20
- survivor count (dose: 100.0 mg/kg/injection, schedule: Q07DX002 (ip), vehicle: saline with Tween-80): 0 of 10 on day 20

Structure (SMILES): CSc1cc(C)[o+]c(C)c1
- T/C (dose: 12.5 mg/kg/injection, schedule: Q07DX002 (ip), vehicle: Klucel (hydroxypropylcellulose) (HPC)): 128 % of control
- T/C (dose: 100.0 mg/kg/injection, schedule: Q07DX002 (ip), vehicle: Klucel (hydroxypropylcellulose) (HPC)): 135 % of control
- survivor count (dose: 400.0 mg/kg/injection, schedule: Q07DX002 (ip), vehicle: Klucel (hydroxypropylcellulose) (HPC)): 0 of 10 on day 20

Structure (SMILES): C/C(=C\c1ccccc1)[N+](=O)[O-]
- T/C (dose: 12.5 mg/kg/injection, schedule: Q07DX003 (ip), vehicle: Klucel (hydroxypropylcellulose) (HPC)): 141 % of control

Structure (SMILES): CN(C)CC(Cl)CCl (configuration not stated)
- T/C [2]: 130 % of control

Structure (SMILES): OC1CCCC2CCCNC12 (configuration not stated)
- survivor count (dose: 200.0 mg/kg/injection, schedule: Q07DX002 (ip), vehicle: Klucel (hydroxypropylcellulose) (HPC)): 1 of 10 on day 20

Structure (SMILES): CC[C@](C)(O)C(=O)O[C@H]1C(=O)O[C@@H]2C[C@H]3C(C)=CC(=O)[C@@H](O)[C@]3(C)[C@H]3[C@@]4(O)OC[C@]32[C@@H]1[C@@H](C)[C@H]4O
- survivor count (dose: 4.0 mg/kg/injection, schedule: Q07DX002 (ip), vehicle: saline with Tween-80): 3 of 10 on day 20

Structure (SMILES): Cc1c2oc3c(C)ccc(C(=O)NC4C(=O)NC(C(C)C)C(=O)N5CCCC5C(=O)N(C)CC(=O)N(C)C(C(C)C)C(=O)OC4C)c3nc-2c(C(=O)NC2C(=O)NC(C(C)C)C(=O)N3CCC3C(=O)N(C)CC(=O)N(C)C(C(C)C)C(=O)OC2C)c(N)c1=O (configuration not stated) (I: TV[Aze][Sar][NMeV] / II: TVP[Sar][NMeV]; ester I:1-I:C, II:1-II:C; linker I:N-II:N via Actinocin(1to9); configuration not given here)
- T/C (dose: 100.0 micrograms/kg/injection, schedule: Q07DX002 (ip), vehicle: saline): 136 % of control [9 of 10 alive on day 20]
- survivor count (dose: 1600.0 micrograms/kg/injection, schedule: Q07DX002 (ip), vehicle: saline): 0 of 10 on day 20

Structure (SMILES): O=C1CN(CN2CCOCC2)C(=O)CN1CN1CCOCC1
- T/C [3]: 128 % of control
- T/C (dose: 100.0 mg/kg/injection, schedule: Q07DX002 (ip), vehicle: saline): 130 % of control

Structure (SMILES): C1CN2CN3CCN(CN1C3)C2
- T/C [3]: 131 % of control
- T/C [2]: 149 % of control [9 of 10 alive]
